Values from PubChem BioAssay AID1259254 (NCATS, 2017).
The whole screen tested about 59,000 reagents; below is an unselected part. About 1,550 of them (2.6%) count as active. 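G2 share is only a proxy for re-replication; each gene was hit by three separate siRNAs, and active genes were retested.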 The numbers tell different reagents against one gene apart. Further read-outs or replicates are left out here. Not given: the amount of reagent.

Test: 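Gene knock-downs that lead to re-replication, shown by excess G2 DNA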 (primary screen)
Cells: human HCT116 colorectal cancer cells
Reagent: single siRNA against human genes
Duration: 3 days
Read-out: 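Nuclei stained with Hoechst and imaged; cell-cycle phase assigned by DNA content; G2 share scaled per plate, non-targeting siRNA 0%, GMNN siRNA 100%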
Reading the numbers: G2 robust z-score: higher = more G2 cells, more excess DNA replication
Rule for the call: 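An siRNA counts as active if its G2 robust z-score lies at least 5 MADs above the screen median; here such calls match roughly 38% of GMNN control or more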

no.	gene	reagent no.	G2 robust z-score	Call
1	RUSC2	1	0.161	inactive
2	RUSC2	2	0.107	inactive
3	RUSC2	3	-0.615	inactive
4	PRSS21	1	-0.0683	inactive
5	PRSS21	2	0.122	inactive
6	PRSS21	3	-1.69	inactive
7	CARF	1	-0.542	inactive
8	CARF	2	0.187	inactive
9	CARF	3	1.68	inactive
10	CARF	4	0.229	inactive
11	CARF	5	-0.471	inactive
12	CARF	6	-0.281	inactive
13	BUD13	1	0.131	inactive
14	BUD13	2	0.489	inactive
15	BUD13	3	-0.421	inactive
16	SLC35F2	1	2.9	inactive
17	SLC35F2	2	0.951	inactive
18	SLC35F2	3	-0.896	inactive
19	MEIS3	1	0.288	inactive
20	MEIS3	2	-1.11	inactive
21	MEIS3	3	0.387	inactive
22	FCN2	1	1.42	inactive
23	FCN2	2	0.604	inactive
24	FCN2	3	1.6	inactive
25	RFX8	1	-0.583	inactive
26	RFX8	2	1.1	inactive
27	RFX8	3	-0.536	inactive
28	RFX8	4	1.21	inactive
29	RFX8	5	1.4	inactive
30	RFX8	6	1.45	inactive

7 neighbouring records from above, for reference:
no.	gene	reagent no.	G2 robust z-score	Call
19	MEIS3	1	0.288	inactive
20	MEIS3	2	-1.11	inactive
21	MEIS3	3	0.387	inactive
22	FCN2	1	1.42	inactive
23	FCN2	2	0.604	inactive
24	FCN2	3	1.6	inactive
25	RFX8	1	-0.583	inactive

More reagents follow:
no.	gene	reagent no.	G2 robust z-score	Call
31	DKKL1	1	0.793	inactive
32	DKKL1	2	-0.467	inactive
33	DKKL1	3	-0.382	inactive
34	PKHD1L1	1	0.17	inactive
35	PKHD1L1	2	-0.769	inactive
36	PKHD1L1	3	-0.176	inactive
37	DDX17	1	-0.797	inactive
38	DDX17	2	-1.24	inactive
39	DDX17	3	-0.901	inactive
40	STAT1	1	2.82	inactive
41	STAT1	2	-0.473	inactive
42	STAT1	3	-1.1	inactive
43	CMTM7	1	3.63	inactive
44	CMTM7	2	-0.384	inactive
45	CMTM7	3	-0.022	inactive
46	HMGN2P31	1	-0.193	inactive
47	HMGN2P31	2	-0.673	inactive
48	HMGN2P31	3	0.366	inactive
